Results as given in patent US5863900A, “Lhrh antagonists” (Biotech Australia Pty., Ltd., priority 1993, dated 1999).
In brackets after ≈: the same amount, converted by molar mass. Entries after “also recorded” stand apart in the source; their conditions may differ. Part of at least one peptide drawing is inferred or uncertain, most often the ends. Where a SMILES comes first, the peptide text is derived from it. [ ]: non-standard residue; d: D form. The star is where a group is joined. dPhe(4-Cl) = N[C@H](Cc1ccc(Cl)cc1)C(=O)O; d2Nal = N[C@H](Cc1ccc2ccccc2c1)C(=O)O; Lys(iPr) = CC(C)NCCCC[C@H](N)C(=O)O; d3Pal = N[C@H](Cc1cccnc1)C(=O)O; Nicotinoyl = O=C(c1cccnc1)*

Experiments:
[1] = test system: serum LH levels in castrate rats; test: Castrate rat model: serum LH after subcutaneous injection; type: in vivo; conditions: for Serum LH, % of matching control (mean ± s.d.): Table 6; for dose at which active in lowering serum LH (as low as) / in vivo bioactivity (in words): s.c. to castrate rats; for in vivo bioactivity (in words): serum LH
[2] = test system: LHRH-stimulated release of LH from rat pituitary cells; test: Pituitary cell assay for LH release (blockade of LHRH-stimulated release of LH); type: cell-based; conditions: for IC50: Table 3, 10 nM LHRH, 4 hours, mean +/- S.E., conjugates as ng of incorporated Antide analogue/ml; for in vitro bioactivity (in words): pituitary cell assay
[3] = Table 4 Expt. 1, dose 100 ug s.c., control 7.35 ± 1.90

Structure (SMILES) | Mean LH ± s.d. ([1]; Table 4 Expt. 1, dose 50 ug s.c., control 7.35 ± 1.90) | Mean LH ± s.d. [1, 3] | Mean LH ± s.d. ([1]; Table 4 Expt. 2, dose 50 ug s.c., control 6.69) | Serum LH, % of matching control (mean ± s.d.) ([1]; dose 3.1 ug of analogue s.c.) | Serum LH, % of matching control (mean ± s.d.) ([1]; dose 6.3 ug of analogue s.c.) | Serum LH, % of matching control (mean ± s.d.) ([1]; dose 12.5 ug of analogue s.c.) | Serum LH, % of matching control (mean ± s.d.) ([1]; dose 25.0 ug of analogue s.c.) | dose at which active in lowering serum LH (as low as) [1] | IC50 [2] | Serum LH, % of matching control (mean ± s.d.) ([1]; dose 100 ug of analogue s.c.) | in vivo bioactivity (in words) [1] | in vitro bioactivity (in words) [2] | Mean LH ± s.d. ([1]; Table 4 Expt. 2, dose 16.7 ug s.c., control 6.69)
CC(=O)N[C@H](Cc1ccc2ccccc2c1)C(=O)N[C@H](Cc1ccc(Cl)cc1)C(=O)N[C@H](Cc1cccnc1)C(=O)N[C@@H](CO)C(=O)N[C@@H](CCCCNC(=O)c1cccnc1)C(=O)N[C@H](CCCCNC(=O)c1cccnc1)C(=O)N[C@@H](CC(C)C)C(=O)N[C@@H](CCCCNC(C)C)C(=O)N1CCC[C@H]1C(=O)N[C@H](C)C(N)=O [ANTIDE, N-Ac-D-Nal(2), D-Phe (pCl), D-Pal(3), Ser, Lys (Nic), D-Lys(Nic), Leu, Lys(iPr), Pro, D-Ala-NH2, reference compound] (Ac-[d2Nal][dPhe(4-Cl)][d3Pal]SK(Nicotinoyl)[dK](Nicotinoyl)L[Lys(iPr)]P[dA]-NH2) | 0.24 ± 0.06 ng/mL | 0.29 ± 0.06 ng/mL | 0.44 ± 0.02 ng/mL | 100.2 ± 36.8% | 80.6 ± 43.8% | 15.3 ± 5.40% | 4 ± 0.70% | ≤ 12.5 µg | 4.4 ± 0.7 ng/mL (≈ 2.76 nM) |  |  |  | 
CC(=O)N[C@H](Cc1ccc2ccccc2c1)C(=O)N[C@H](Cc1ccc(Cl)cc1)C(=O)N[C@H](Cc1cccnc1)C(=O)N[C@@H](CO)C(=O)N[C@@H](CCCCNC(=O)c1cccnc1)C(=O)N[C@H](CCCCN)C(=O)N[C@@H](CC(C)C)C(=O)N[C@@H](CCCCNC(C)C)C(=O)N1CCC[C@H]1C(=O)N[C@H](C)C(N)=O [ANTIDE-1, N-Ac-D-Nal(2), D-Phe (pCl), D-Pal(3), Ser, Lys (Nic), D-Lys, Leu, Lys(iPr), Pro, D-Ala-NH2] (Ac-[d2Nal][dPhe(4-Cl)][d3Pal]SK(Nicotinoyl)[dK]L[Lys(iPr)]P[dA]-NH2) |  | 6.37 ± 1.00 ng/mL |  |  |  |  |  |  | 2.1 ± 0.3 ng/mL (≈ 1.41 nM) | 87.6 ± 13.6% | negligible antagonist activity | high potency; also recorded: considerable potency in vitro | 
CC(=O)N[C@H](Cc1ccc2ccccc2c1)C(=O)N[C@H](Cc1ccc(Cl)cc1)C(=O)N[C@H](Cc1cccnc1)C(=O)N[C@@H](CO)C(=O)N[C@@H](CCCCN)C(=O)N[C@H](CCCCNC(=O)c1cccnc1)C(=O)N[C@@H](CC(C)C)C(=O)N[C@@H](CCCCNC(C)C)C(=O)N1CCC[C@H]1C(=O)N[C@H](C)C(N)=O [ANTIDE-2, N-Ac-D-Nal(2), D-Phe (pCl), D-Pal(3), Ser, Lys , D-Lys(Nic), Leu, Lys(iPr), Pro, D-Ala-NH2] (Ac-[d2Nal][dPhe(4-Cl)][d3Pal]SK[dK](Nicotinoyl)L[Lys(iPr)]P[dA]-NH2) |  | 9.51 ± 3.11 ng/mL |  |  |  |  |  |  | 11.7 ± 2.7 ng/mL (≈ 7.87 nM) |  |  |  | 
CC(=O)N[C@H](Cc1ccc2ccccc2c1)C(=O)N[C@H](Cc1ccc(Cl)cc1)C(=O)N[C@H](Cc1cccnc1)C(=O)N[C@@H](CO)C(=O)N[C@@H](CCCCNC(=O)c1cccnc1)C(=O)N[C@H](CCCCNC(=O)c1cccnc1)C(=O)N[C@@H](CC(C)C)C(=O)N[C@@H](CCCCN)C(=O)N1CCC[C@H]1C(=O)N[C@H](C)C(N)=O [ANTIDE-3, N-Ac-D-Nal(2), D-Phe (pCl), D-Pal(3), Ser, Lys (Nic), D-Lys(Nic), Leu, Lys, Pro, D-Ala-NH2] (Ac-[d2Nal][dPhe(4-Cl)][d3Pal]SK(Nicotinoyl)[dK](Nicotinoyl)LKP[dA]-NH2) |  | 0.27 ± 0.05 ng/mL |  |  | 116.1 ± 42.4% | 43.0 ± 12.8% | 18.0 ± 5.50% | ≤ 12.5 µg | 1.2 ± 0.2 ng/mL (≈ 0.775 nM) | 3.7 ± 0.70% | highly potent; also recorded: activity comparable to the native ANTIDE in vivo | high potency; also recorded: considerable potency in vitro | 0.71 ± 0.2 ng/mL
